Some entries share one result that the patent states for a list of compounds. For at least one compound, name, drawing or mass did not settle the structure.
Columns and labels:
Format in all cases: in vivo
[1] = system: Tobacco Cutworm (Spodoptera litura); experiment: Tobacco cutworm control test (leaf piece dipping treatment); settings: 200 ppm, cabbage leaf piece dipped, second instar larvae, five days after the treatment, 25° C.
[2] = system: Southern Yellow Thrips (Thrips palmi); experiment: Southern yellow thrips control test (leaf piece application treatment); settings: 200 ppm, sprayed on cucumber leaf piece, first instar larvae, two days after the treatment, 25° C.
[3] = system: Diamondback Moth (Plutella xylostella); experiment: Diamondback moth control test (leaf piece dipping treatment); settings: 200 ppm, cabbage leaf piece dipped, third instar, five days after the treatment, 25° C.
[4] = system: Cotton Aphid (Aphis gossypii); experiment: Cotton aphid control test (leaf piece application treatment); settings: 200 ppm, sprayed on cucumber leaf piece, nymphs, five days after the treatment, 25° C.
Method: The insect mortality rate and the feeding damage prevention effect shown in the Biological Test Examples were calculated based on the following expression.
Biological Test Example 1: Cotton Aphid (Aphis gossypii) Control Test (Leaf Piece Application Treatment)
A cucumber leaf was cut into a piece having a diameter of 3.5 cm and placed on absorbent cotton moistened with water. Two adult cotton aphids were released thereon, and allowed to lay nymphs for 24 hours, and then the adults were removed. 2 mL of a diluted solution of the test compound diluted to 200 ppm was applied onto the resulting cucumber leaf by using an spray tower. The cucumber leaf was air-dried and then placed in a plastic cup together with the absorbent cotton, the cup was covered with a lid, and the nymphs were reared in a constant temperature chamber at 25° C.

[5] = system: Brown Planthopper (Nilaparvata lugens); experiment: Brown planthopper control test (foliage dipping treatment); settings: 200 ppm, rice seedlings dipped, third instar nymphs, five days after the treatment, 25° C.

Row | Structure (SMILES) | insect mortality rate [1] | insect mortality rate or feeding damage prevention effect [2] | insect mortality rate [3] | insect mortality rate [4] | insect mortality rate [5]
1 | CCS(=O)(=O)c1cc(-c2ccc(SC(F)(F)F)cc2)cnc1-c1noc(=O)n1-c1ccc(C(F)(F)F)cn1 [Compound 95] | ≥ 80% | ≥ 50% | ≥ 80% | ≥ 80% | –
2 | CCS(=O)(=O)c1cc(-c2ccc(SC(F)(F)F)cc2)cnc1-c1noc(=O)n1-c1cc(C(F)(F)F)ccn1 [Compound 97] | ≥ 80% | ≥ 50% | ≥ 80% | ≥ 80% | –
3 | CCS(=O)(=O)c1cc(-c2ccc(Cl)cc2)cnc1-c1noc(=O)n1-c1cc(C(F)(F)F)ccn1 [Compound 153] | ≥ 80% | ≥ 50% | ≥ 80% | ≥ 80% | –
4 | CCS(=O)(=O)c1cc2cc(OC(F)(F)F)ccc2nc1-c1noc(=O)n1-c1cc(C(F)(F)F)ccn1 [Compound 147] | ≥ 80% | – | ≥ 80% | ≥ 80% | ≥ 80%
5 | CCS(=O)(=O)c1cc(-c2ccc(OC(F)(F)F)cc2)cnc1-c1noc(=O)n1-c1cc(C(F)(F)F)ccn1 [Compound 47] | ≥ 80% | ≥ 50% | ≥ 80% | ≥ 80% | –
6 | CCS(=O)(=O)c1cc(-c2ccc(S(=O)(=O)C(F)(F)F)cc2)cnc1-c1noc(=O)n1-c1cc(C(F)(F)F)ccn1 [Compound 98] | ≥ 80% | ≥ 50% | ≥ 80% | – | –
7 | CCS(=O)(=O)c1cc(C(F)(F)F)cnc1-c1noc(=O)n1-c1ccc(C(F)(F)F)cn1 [Compound 10] | ≥ 80% | – | ≥ 80% | ≥ 80% | ≥ 80%
8 | CCS(=O)(=O)c1cc2ccc(Cl)cc2nc1-c1noc(=O)n1-c1ccc(C(F)(F)F)cn1 [Compound 174] | ≥ 80% | – | ≥ 80% | ≥ 80% | ≥ 80%
9 | CCS(=O)(=O)c1cc(-n2nccn2)cnc1-c1noc(=O)n1-c1cc(C(F)(F)F)ccn1 [Compound 88] | ≥ 80% | – | ≥ 80% | ≥ 80% | ≥ 80%
10 | CCS(=O)(=O)c1cc(-c2ccc(F)cc2)cnc1-c1noc(=O)n1-c1cc(Cl)c(C(F)(F)F)cn1 [Compound 80] | ≥ 80% | ≥ 50% | ≥ 80% | – | –
11 | CCS(=O)(=O)c1c(-c2noc(=O)n2-c2ccc(C(F)(F)F)cn2)ncc2c(-c3ccc(F)cc3)cccc12 [Compound 171] | ≥ 80% | – | ≥ 80% | ≥ 80% | ≥ 80%
12 | CCS(=O)(=O)c1c(-c2noc(=O)n2-c2cc(C(F)(F)F)ccn2)nc2ccc(C(F)(F)F)cn12 [Compound 77] | ≥ 80% | – | ≥ 80% | ≥ 80% | ≥ 80%
13 | CCS(=O)(=O)c1cc(-c2ccc(C#N)cc2)cnc1-c1noc(=O)n1-c1ccc(OC(F)(F)F)cn1 [Compound 100] | ≥ 80% | – | ≥ 80% | ≥ 80% | ≥ 80%
14 | CCS(=O)(=O)c1cc(-c2ccc(C#N)cc2)cnc1-c1noc(=O)n1-c1cc(C(F)(F)F)ccn1 [Compound 51] | ≥ 80% | – | ≥ 80% | ≥ 80% | ≥ 80%
15 | CCS(=O)(=O)c1cc(-c2ccc(S(=O)(=O)C(F)(F)F)cc2)cnc1-c1noc(=O)n1-c1ccc(C(F)(F)F)cn1 [Compound 96] | ≥ 80% | ≥ 50% | ≥ 80% | – | –
